This is one part of the list.
Compound: Cc1cc(ccc1-c1ccccc1)C(=O)N1CCCN(CC1)C(=O)CCl [compound 10]
Assay: probe-labelled cysteine peptide fold change vs DMSO (competition) (log2 fold change); higher = less target engagement (more negative = stronger competition)
Conditions: THP-1, incubation time: 4 h
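Note: competitive profiling in live THP-1 cells: cysteine peptides tagged with an iodoacetamide desthiobiotin (IA-DTB) probe, intensity after compound treatment relative to DMSO-treated cells.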

The chains behind the UniProt entries cited, without tags or fusion partners. Where a name states a change or a piece, a line headed by the entry shows the natural chain unless it says otherwise.
UniProt Q9NTJ3, whole entry, looked up: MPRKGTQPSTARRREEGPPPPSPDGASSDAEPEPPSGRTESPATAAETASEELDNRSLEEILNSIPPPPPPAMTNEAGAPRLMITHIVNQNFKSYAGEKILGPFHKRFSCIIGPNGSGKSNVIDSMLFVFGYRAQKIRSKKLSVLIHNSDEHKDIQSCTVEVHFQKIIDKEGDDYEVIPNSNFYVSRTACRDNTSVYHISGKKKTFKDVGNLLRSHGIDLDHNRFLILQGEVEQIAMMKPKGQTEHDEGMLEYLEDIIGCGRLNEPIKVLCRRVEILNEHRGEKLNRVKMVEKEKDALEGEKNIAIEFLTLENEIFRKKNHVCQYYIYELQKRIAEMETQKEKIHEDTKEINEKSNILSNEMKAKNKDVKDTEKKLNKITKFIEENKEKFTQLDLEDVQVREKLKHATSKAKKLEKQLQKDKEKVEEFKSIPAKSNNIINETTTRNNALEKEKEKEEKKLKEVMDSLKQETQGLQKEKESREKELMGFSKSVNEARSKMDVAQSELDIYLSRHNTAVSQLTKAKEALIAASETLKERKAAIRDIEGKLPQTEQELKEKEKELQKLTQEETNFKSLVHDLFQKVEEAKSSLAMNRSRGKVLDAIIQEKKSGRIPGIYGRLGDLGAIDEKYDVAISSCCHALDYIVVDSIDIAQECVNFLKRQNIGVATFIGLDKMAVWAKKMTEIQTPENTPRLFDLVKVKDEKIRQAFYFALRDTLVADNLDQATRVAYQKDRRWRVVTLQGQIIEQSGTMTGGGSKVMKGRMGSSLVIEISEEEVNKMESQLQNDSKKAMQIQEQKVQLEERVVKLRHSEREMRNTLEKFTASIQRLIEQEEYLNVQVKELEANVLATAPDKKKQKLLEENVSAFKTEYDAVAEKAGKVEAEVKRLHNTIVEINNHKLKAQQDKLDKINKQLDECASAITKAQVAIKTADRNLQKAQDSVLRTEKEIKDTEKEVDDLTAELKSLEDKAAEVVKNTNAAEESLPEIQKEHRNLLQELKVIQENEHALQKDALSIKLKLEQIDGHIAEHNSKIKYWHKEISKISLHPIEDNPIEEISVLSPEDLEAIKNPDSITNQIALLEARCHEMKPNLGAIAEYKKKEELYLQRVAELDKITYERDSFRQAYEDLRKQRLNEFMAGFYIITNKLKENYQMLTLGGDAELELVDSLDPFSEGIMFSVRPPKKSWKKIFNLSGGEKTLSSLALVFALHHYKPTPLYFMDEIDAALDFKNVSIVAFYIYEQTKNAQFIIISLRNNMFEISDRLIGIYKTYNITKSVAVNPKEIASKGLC
UniProt A6NHR9: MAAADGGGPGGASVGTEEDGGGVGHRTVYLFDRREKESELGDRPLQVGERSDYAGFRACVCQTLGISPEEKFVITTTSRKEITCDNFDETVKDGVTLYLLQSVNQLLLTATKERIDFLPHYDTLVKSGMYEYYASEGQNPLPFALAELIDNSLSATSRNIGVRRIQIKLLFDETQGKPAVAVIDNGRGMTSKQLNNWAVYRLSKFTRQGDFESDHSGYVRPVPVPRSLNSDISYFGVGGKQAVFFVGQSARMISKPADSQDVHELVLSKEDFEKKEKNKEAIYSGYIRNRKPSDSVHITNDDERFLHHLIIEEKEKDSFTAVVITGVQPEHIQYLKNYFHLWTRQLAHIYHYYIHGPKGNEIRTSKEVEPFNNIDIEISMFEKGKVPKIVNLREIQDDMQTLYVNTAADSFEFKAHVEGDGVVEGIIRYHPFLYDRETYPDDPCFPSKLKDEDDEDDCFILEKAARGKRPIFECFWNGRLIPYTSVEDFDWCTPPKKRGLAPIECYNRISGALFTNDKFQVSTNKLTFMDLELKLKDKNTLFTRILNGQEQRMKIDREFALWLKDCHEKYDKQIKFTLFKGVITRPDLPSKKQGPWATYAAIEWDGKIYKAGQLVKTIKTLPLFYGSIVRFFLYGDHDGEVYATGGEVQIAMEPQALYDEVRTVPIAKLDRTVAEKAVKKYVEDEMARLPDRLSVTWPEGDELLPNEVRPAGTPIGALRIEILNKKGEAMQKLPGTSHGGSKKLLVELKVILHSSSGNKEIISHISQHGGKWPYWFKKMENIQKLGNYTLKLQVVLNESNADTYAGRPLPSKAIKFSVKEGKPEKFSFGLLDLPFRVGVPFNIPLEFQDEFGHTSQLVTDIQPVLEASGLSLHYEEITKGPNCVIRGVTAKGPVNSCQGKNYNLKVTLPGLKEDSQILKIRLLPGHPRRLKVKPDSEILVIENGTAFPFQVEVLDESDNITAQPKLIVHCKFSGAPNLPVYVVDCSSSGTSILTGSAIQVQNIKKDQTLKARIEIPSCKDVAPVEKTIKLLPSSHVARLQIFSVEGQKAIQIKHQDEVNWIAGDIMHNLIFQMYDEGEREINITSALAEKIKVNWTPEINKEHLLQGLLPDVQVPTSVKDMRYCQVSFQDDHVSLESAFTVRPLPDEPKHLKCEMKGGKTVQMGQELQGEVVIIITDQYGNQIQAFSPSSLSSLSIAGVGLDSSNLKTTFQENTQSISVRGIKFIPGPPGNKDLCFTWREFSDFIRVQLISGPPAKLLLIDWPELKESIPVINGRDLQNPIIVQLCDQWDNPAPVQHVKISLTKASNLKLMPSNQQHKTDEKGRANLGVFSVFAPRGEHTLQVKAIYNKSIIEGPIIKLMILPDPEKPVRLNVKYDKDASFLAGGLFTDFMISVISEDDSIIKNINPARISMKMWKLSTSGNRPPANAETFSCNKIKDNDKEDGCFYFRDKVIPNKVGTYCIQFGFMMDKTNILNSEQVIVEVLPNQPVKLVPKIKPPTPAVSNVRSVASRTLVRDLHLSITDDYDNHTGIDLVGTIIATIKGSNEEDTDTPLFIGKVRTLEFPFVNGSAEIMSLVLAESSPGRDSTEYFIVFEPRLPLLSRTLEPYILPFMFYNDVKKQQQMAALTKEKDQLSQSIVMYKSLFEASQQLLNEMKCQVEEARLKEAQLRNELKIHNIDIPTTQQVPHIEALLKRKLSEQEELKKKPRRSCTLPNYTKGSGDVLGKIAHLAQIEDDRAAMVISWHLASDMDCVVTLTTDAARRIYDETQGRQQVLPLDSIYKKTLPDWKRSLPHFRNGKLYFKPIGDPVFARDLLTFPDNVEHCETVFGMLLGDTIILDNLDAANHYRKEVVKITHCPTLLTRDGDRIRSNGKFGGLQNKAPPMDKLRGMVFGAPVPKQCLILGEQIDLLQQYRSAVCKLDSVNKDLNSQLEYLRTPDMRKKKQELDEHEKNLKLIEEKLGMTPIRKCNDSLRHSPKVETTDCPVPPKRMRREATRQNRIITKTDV
UniProt Q9BWU0: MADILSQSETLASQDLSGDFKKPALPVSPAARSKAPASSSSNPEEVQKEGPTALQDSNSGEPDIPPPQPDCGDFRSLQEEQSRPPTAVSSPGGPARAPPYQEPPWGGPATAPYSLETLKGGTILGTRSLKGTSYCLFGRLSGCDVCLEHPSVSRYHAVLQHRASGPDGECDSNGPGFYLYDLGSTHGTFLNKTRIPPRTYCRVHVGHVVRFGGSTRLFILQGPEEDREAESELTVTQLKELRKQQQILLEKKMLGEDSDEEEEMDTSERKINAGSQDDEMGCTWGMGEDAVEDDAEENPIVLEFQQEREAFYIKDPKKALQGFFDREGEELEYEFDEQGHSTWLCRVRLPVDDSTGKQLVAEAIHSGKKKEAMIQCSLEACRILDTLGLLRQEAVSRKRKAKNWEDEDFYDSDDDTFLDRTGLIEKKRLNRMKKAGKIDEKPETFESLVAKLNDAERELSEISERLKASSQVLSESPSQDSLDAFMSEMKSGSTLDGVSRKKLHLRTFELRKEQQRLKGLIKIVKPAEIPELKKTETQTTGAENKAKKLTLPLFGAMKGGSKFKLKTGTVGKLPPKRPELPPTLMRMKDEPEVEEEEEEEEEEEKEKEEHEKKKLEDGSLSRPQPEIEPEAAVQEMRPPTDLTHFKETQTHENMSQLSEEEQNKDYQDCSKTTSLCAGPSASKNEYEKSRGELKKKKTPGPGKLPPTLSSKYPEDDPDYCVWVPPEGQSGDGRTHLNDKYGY
UniProt O75643, whole entry, looked up: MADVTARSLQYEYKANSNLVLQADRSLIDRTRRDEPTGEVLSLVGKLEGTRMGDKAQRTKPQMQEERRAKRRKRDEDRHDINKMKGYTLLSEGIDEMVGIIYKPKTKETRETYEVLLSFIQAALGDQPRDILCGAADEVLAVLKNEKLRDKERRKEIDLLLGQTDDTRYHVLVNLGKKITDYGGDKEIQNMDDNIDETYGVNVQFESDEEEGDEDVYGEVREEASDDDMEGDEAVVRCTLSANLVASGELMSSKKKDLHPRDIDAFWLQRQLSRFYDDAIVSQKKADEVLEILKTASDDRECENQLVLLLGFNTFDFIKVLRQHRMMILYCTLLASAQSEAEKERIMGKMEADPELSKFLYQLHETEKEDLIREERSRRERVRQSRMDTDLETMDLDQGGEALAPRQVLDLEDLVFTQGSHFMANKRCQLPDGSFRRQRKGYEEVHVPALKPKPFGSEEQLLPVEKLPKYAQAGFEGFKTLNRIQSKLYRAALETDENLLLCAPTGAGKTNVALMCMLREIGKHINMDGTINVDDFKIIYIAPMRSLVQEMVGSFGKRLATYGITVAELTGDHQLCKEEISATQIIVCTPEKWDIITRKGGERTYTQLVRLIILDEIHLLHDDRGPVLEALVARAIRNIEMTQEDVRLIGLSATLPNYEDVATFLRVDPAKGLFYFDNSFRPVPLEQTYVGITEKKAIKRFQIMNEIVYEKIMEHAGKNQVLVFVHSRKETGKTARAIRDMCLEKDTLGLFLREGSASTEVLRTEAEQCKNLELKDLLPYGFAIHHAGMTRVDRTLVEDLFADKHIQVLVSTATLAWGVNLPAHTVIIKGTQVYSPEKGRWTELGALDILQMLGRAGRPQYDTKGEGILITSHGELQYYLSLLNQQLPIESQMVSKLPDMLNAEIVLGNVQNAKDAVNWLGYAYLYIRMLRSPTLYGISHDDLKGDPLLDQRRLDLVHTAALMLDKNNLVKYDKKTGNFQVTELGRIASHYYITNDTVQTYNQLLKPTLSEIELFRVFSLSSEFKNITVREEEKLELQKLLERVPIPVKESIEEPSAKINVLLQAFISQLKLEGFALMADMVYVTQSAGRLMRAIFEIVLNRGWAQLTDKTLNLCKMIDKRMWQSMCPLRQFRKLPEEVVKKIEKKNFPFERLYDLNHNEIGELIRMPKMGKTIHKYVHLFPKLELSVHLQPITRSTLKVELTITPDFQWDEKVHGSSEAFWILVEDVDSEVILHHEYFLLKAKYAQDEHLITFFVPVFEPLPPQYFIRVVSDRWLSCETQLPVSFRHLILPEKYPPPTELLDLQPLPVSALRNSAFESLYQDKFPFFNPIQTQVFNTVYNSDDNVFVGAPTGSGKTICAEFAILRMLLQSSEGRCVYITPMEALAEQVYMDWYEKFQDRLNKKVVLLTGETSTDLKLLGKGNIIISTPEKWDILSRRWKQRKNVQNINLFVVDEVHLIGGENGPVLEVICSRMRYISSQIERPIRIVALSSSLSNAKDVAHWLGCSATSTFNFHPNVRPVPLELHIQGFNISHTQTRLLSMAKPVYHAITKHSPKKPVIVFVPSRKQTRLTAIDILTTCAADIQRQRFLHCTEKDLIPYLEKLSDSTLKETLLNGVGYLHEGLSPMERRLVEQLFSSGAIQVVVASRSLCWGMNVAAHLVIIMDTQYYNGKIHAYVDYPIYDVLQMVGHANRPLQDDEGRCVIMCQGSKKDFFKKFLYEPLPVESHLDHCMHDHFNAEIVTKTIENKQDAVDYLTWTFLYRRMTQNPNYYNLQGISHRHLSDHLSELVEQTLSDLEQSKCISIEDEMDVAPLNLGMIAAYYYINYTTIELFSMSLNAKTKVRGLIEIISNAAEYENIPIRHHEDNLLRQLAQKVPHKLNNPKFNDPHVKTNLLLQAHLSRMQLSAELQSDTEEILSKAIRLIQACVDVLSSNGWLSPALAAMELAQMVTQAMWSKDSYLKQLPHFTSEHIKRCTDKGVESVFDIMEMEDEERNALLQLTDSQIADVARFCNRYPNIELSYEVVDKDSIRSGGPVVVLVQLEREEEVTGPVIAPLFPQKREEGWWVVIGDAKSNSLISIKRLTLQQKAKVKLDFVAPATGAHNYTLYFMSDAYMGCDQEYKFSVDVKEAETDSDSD
UniProt P52788: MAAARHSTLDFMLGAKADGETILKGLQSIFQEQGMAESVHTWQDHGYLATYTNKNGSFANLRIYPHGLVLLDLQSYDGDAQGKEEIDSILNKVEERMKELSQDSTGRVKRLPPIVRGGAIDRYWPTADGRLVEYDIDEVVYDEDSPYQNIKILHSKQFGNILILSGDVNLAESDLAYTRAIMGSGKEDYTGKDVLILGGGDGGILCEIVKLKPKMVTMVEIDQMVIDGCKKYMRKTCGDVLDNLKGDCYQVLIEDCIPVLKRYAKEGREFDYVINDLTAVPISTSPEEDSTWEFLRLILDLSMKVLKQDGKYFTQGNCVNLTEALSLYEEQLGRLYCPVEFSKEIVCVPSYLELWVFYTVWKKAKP

Target	probe-labelled cysteine peptide fold change (10 µM)	probe-labelled cysteine peptide fold change (50 µM)
SMC4_Q9NTJ3_260_GQTEHDEGMLEYLEDIIGCGR (UniProt Q9NTJ3)	0.0057	0.162
SMC4_Q9NTJ3_916_QLDECASAITK (UniProt Q9NTJ3)	0.0503	0.204
SLU7_O95391_469_EIVNSEECIINEITGEESVK (UniProt O95391)	-0.103	0.205
SMAD5_Q99717_378_IPSSCSLK (UniProt Q99717)	-0.106	-0.185
SMAD3_P84022_109_AMELCEFAFNMK (UniProt P84022)	0.217	0.321
SMARCA5_O60264_519_VLDILEDYCMWR (UniProt O60264)	0.0479	0.0111
SLK_Q9H2G2_993_AELANIERECLNNK (UniProt Q9H2G2)	0.136	-0.273
SNRPB_P14678_43+45_HMNLILCDCDEFRK (UniProt P14678)	0.0132	-0.252
SMCHD1_A6NHR9_444_YHPFLYDRETYPDDPCFPSK (UniProt A6NHR9)	-0.159	-0.206
SNRNP48_Q6IEG0_26_LQEELNEFVESGCR (UniProt Q6IEG0)	-0.308	0.17
SMAD4_Q13485_391_GVQLECK (UniProt Q13485)	0.18	0.029
SNRPB_P14678_43_HMNLILCDCDEFRK (UniProt P14678)	0.0505	-0.113
SMCHD1_A6NHR9_474_RPIFECFWNGR (UniProt A6NHR9)	-0.0556	0.352
SND1_Q7KZF4_96_EVCFTIENK (UniProt Q7KZF4)	0.11	-0.0268
SMC5_Q8IY18_582_ELFDAPDPVMSYLCCQYHIHEVPVGTEK (UniProt Q8IY18)	0.181	0.215
SMARCC1_Q92922_845_ELTDTCK (UniProt Q92922)	-0.0883	-0.168
SLC4A7_Q9Y6M7_120_VQFILGTEDDDEEHIPHDLFTEMDELCYR (UniProt Q9Y6M7)	-0.182	0.386
SMARCA4_P51532_998_CDMSALQR (UniProt P51532)	0.126	0.198
SMARCA2_P51531_968_CDMSALQK (UniProt P51531)	0.144	0.232
SLC4A1AP_Q9BWU0_435_EAMIQCSLEACR (UniProt Q9BWU0)	0.124	-0.25
SNRNP200_O75643_1115_TLNLCK (UniProt O75643)	0.0532	0.141
SLC44A1_Q8WWI5_98_YVFFLDPCNLDLINRK (UniProt Q8WWI5)	-0.00663	-0.221
SMARCC1_Q92922_119_AGGALCHILGAAYK (UniProt Q92922)	-0.116	0.152
SNRPC_P09234_25_KTHCSGR (UniProt P09234)	0.0214	-0.97
SMN2_Q16637_60_NGDICETSGKPK (UniProt Q16637)	-0.198	-0.473
SMC5_Q8IY18_393_TTENCENLQPQIDAITNDLRR (UniProt Q8IY18)	-0.0839	-0.208
SND1_Q7KZF4_152_LSECEEQAK (UniProt Q7KZF4)	-0.318	-0.0168

Target	probe-labelled cysteine peptide fold change (10 µM)	probe-labelled cysteine peptide fold change (50 µM)
SMARCAD1_Q9H4L7_861_VLGCILSELK (UniProt Q9H4L7)	0.0115	0.278
SMG8_Q8ND04_72_FSLVNTVCDR (UniProt Q8ND04)	-0.0267	-0.165
SMNDC1_O75940_214_VGVGTCGIADKPMTQYQDTSK (UniProt O75940)	0.155	-0.732
SMARCA5_O60264_976_ENVYDELRQCIR (UniProt O60264)	0.287	-0.293
SLC4A1AP_Q9BWU0_399_ALQGFFDREGEELEYEFDEQGHSTWLCR (UniProt Q9BWU0)	0.228	0.0621
SMC6_Q96SB8_385_DDEQLCK (UniProt Q96SB8)	0.0125	-0.0345
SMARCC2_Q8TAQ2_91_AGGSLCHILAAAYK (UniProt Q8TAQ2)	-0.115	0.0758
SND1_Q7KZF4_268_DVQIILESCHNQNILGTILHPNGNITELLLK (UniProt Q7KZF4)	0.0651	0.0169
SNRNP200_O75643_1278_VVSDRWLSCETQLPVSFR (UniProt O75643)	-0.0123	-0.0331
SMYD3_Q9H7B4_263_QLRDQYCFECDCFR (UniProt Q9H7B4)	-0.168	-0.258
SLC4A1AP_Q9BWU0_200_LSGCDVCLEHPSVSR (UniProt Q9BWU0)	-0.124	-0.072
SMU1_Q2TAY7_448_EGGDFVCCALSPR (UniProt Q2TAY7)	0.0607	-0.298
SMU1_Q2TAY7_312_GVTCLSFSK (UniProt Q2TAY7)	0.0977	0.00392
SMCHD1_A6NHR9_505_GLAPIECYNR (UniProt A6NHR9)	-0.01	0.164
SMS_P52788_237_TCGDVLDNLK (UniProt P52788)	0.00123	0.12
SMCHD1_A6NHR9_84_EITCDNFDETVK (UniProt A6NHR9)	-0.182	-0.259
SMYD5_Q6GMV2_136_LAATEQYHQVLCPGPSQDDPLHPLNK (UniProt Q6GMV2)	-0.0142	-0.404
SMS_P52788_206_DVLILGGGDGGILCEIVK (UniProt P52788)	0.0241	-0.0455
SLC4A2_P04920_1215_CLDANEAEPVFDER (UniProt P04920)	0.0795	0.42
SLC7A6OS_Q96CW6_166_TSDPDVILCNSVELIR (UniProt Q96CW6)	-0.374	-0.146
SLX4IP_Q5VYV7_299_NCSSAEDFDHHGR (UniProt Q5VYV7)	-0.127	-0.368
SLC4A1AP_Q9BWU0_399_EGEELEYEFDEQGHSTWLCR (UniProt Q9BWU0)	0.041	-0.121
SNRPD2_P62316_63_AFDRHCNMVLENVK (UniProt P62316)	-0.144	-0.738
SLMAP_Q14BN4_286_SLSNTEDECTHLK (UniProt Q14BN4)	-0.314	-0.224
SMPD2_O60906_189_KADVVLLCGDLNMHPEDLGCCLLK (UniProt O60906)	-0.193	0.0371
SMARCA5_O60264_1001_CNTLITLIER (UniProt O60264)	0.123	0.462
